Some of the results follow.

We go through one molecule from the supplement of paper PMC8728848.

Common to all, as to test: glycan array binding signal (z-score within array); higher = stronger binding
Holding throughout (conditions): glycan notation: IUPAC condensed, linker removed

Assay [1] deals with Gal(b1-4)GlcNAc(b1-3)Gal(b1-4)Glc. In a few lines:
(§1)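 Arrays were curated from the Consortium for Functional Glycomics database, 3228 in total, and kept only where the protein sequence was available. Binding is expressed as a within-array Z-score. This score was averaged across arrays of the same protein sequence at different concentrations or buffers and across linkers, and negative values can be read as non-binding.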

The target of assay [2] is Gal(b1-4)GlcNAc(b1-3)Gal(b1-4)GlcNAc. The method in brief:
as §1

Assay [3] deals with Gal(b1-4)GlcNAc(b1-3)Gal(b1-4)GlcNAc(b1-2)Man(a1-3)[Gal(b1-4)GlcNAc(b1-3)Gal(b1-4)GlcNAc(b1-2)Man(a1-6)]Man(b1-4)GlcNAc(b1-4)GlcNAc. The method in brief: as §1
Assay [4] deals with Gal(b1-4)GlcNAc(b1-3)Gal(b1-4)GlcNAc(b1-2)Man(a1-3)[Gal(b1-4)GlcNAc(b1-3)Gal(b1-4)GlcNAc(b1-2)Man(a1-6)]Man(b1-4)GlcNAc(b1-4)[Fuc(a1-6)]GlcNAc. In a few lines: as §1
Assay [5] has as its target Gal(b1-4)GlcNAc(b1-3)Gal(b1-4)GlcNAc(b1-2)[Gal(b1-4)GlcNAc(b1-3)Gal(b1-4)GlcNAc(b1-6)]Man(a1-6)[Gal(b1-4)GlcNAc(b1-3)Gal(b1-4)GlcNAc(b1-2)Man(a1-3)]Man(b1-4)GlcNAc(b1-4)GlcNAc. In a few lines: as §1
Assay [6] concerns the target Gal(b1-4)GlcNAc(b1-3)Gal(b1-4)GlcNAc(b1-2)[Gal(b1-4)GlcNAc(b1-3)Gal(b1-4)GlcNAc(b1-6)]Man(a1-6)[Gal(b1-4)GlcNAc(b1-3)Gal(b1-4)GlcNAc(b1-2)Man(a1-3)]Man(b1-4)GlcNAc(b1-4)[Fuc(a1-6)]GlcNAc. In a few lines: as §1
The target in assay [7] is Gal(b1-4)GlcNAc(b1-3)Gal(b1-4)GlcNAc(b1-3)Gal(b1-4)GlcNAc. The method in brief: as §1
The target in assay [8] is Gal(b1-4)GlcNAc(b1-3)Gal(b1-4)GlcNAc(b1-3)Gal(b1-4)GlcNAc(b1-2)Man(a1-3)[Gal(b1-4)GlcNAc(b1-3)Gal(b1-4)GlcNAc(b1-3)Gal(b1-4)GlcNAc(b1-2)Man(a1-6)]Man(b1-4)GlcNAc(b1-4)GlcNAc. The method in brief: as §1
Assay [9] concerns the target Gal(b1-4)GlcNAc(b1-3)Gal(b1-4)GlcNAc(b1-3)Gal(b1-4)GlcNAc(b1-2)Man(a1-3)[Gal(b1-4)GlcNAc(b1-3)Gal(b1-4)GlcNAc(b1-3)Gal(b1-4)GlcNAc(b1-2)Man(a1-6)]Man(b1-4)GlcNAc(b1-4)[Fuc(a1-6)]GlcNAc. The method in brief:
as §1

Assay [10] concerns the target Gal(b1-4)GlcNAc(b1-3)Gal(b1-4)GlcNAc(b1-3)Gal(b1-4)GlcNAc(b1-2)[Gal(b1-4)GlcNAc(b1-3)Gal(b1-4)GlcNAc(b1-3)Gal(b1-4)GlcNAc(b1-6)]Man(a1-6)[Gal(b1-4)GlcNAc(b1-3)Gal(b1-4)GlcNAc(b1-3)Gal(b1-4)GlcNAc(b1-2)Man(a1-3)]Man(b1-4)GlcNAc(b1-4)[Fuc(a1-6)]GlcNAc. In a few lines: as §1
Assay [11] deals with Gal(b1-4)GlcNAc(b1-3)Gal(b1-4)GlcNAc(b1-3)Gal(b1-4)GlcNAc(b1-3)Gal(b1-4)GlcNAc(b1-2)Man(a1-3)[Gal(b1-4)GlcNAc(b1-3)Gal(b1-4)GlcNAc(b1-3)Gal(b1-4)GlcNAc(b1-3)Gal(b1-4)GlcNAc(b1-2)Man(a1-6)]Man(b1-4)GlcNAc(b1-4)GlcNAc. In a few lines:
as §1

Assay [12] concerns the target Gal(b1-4)GlcNAc(b1-3)Gal(b1-4)GlcNAc(b1-3)Gal(b1-4)GlcNAc(b1-3)Gal(b1-4)GlcNAc(b1-2)Man(a1-3)[Gal(b1-4)GlcNAc(b1-3)Gal(b1-4)GlcNAc(b1-3)Gal(b1-4)GlcNAc(b1-3)Gal(b1-4)GlcNAc(b1-2)Man(a1-6)]Man(b1-4)GlcNAc(b1-4)[Fuc(a1-6)]GlcNAc. In a few lines:
as §1

Assay [13] addresses Gal(b1-4)GlcNAc(b1-3)Gal(b1-4)GlcNAc(b1-3)Gal(b1-4)GlcNAc(b1-3)Gal(b1-4)GlcNAc(b1-2)[Gal(b1-4)GlcNAc(b1-3)Gal(b1-4)GlcNAc(b1-3)Gal(b1-4)GlcNAc(b1-3)Gal(b1-4)GlcNAc(b1-6)]Man(a1-6)[Gal(b1-4)GlcNAc(b1-3)Gal(b1-4)GlcNAc(b1-3)Gal(b1-4)GlcNAc(b1-3)Gal(b1-4)GlcNAc(b1-2)Man(a1-3)]Man(b1-4)GlcNAc(b1-4)[Fuc(a1-6)]GlcNAc. The method in brief:
as §1

The target of assay [14] is Gal(b1-4)GlcNAc(b1-3)Gal(b1-4)GlcNAc(b1-3)Gal(b1-4)GlcNAc(b1-3)Gal(b1-4)GlcNAc(b1-3)Gal(b1-4)GlcNAc(b1-2)Man(a1-3)[Gal(b1-4)GlcNAc(b1-3)Gal(b1-4)GlcNAc(b1-3)Gal(b1-4)GlcNAc(b1-3)Gal(b1-4)GlcNAc(b1-3)Gal(b1-4)GlcNAc(b1-2)Man(a1-6)]Man(b1-4)GlcNAc(b1-4)GlcNAc. In a few lines: as §1
The target in assay [15] is Gal(b1-4)GlcNAc(b1-3)Gal(b1-4)GlcNAc(b1-3)Gal(b1-4)GlcNAc(b1-3)Gal(b1-4)GlcNAc(b1-3)Gal(b1-4)GlcNAc(b1-2)Man(a1-3)[Gal(b1-4)GlcNAc(b1-3)Gal(b1-4)GlcNAc(b1-3)Gal(b1-4)GlcNAc(b1-3)Gal(b1-4)GlcNAc(b1-3)Gal(b1-4)GlcNAc(b1-2)Man(a1-6)]Man(b1-4)GlcNAc(b1-4)[Fuc(a1-6)]GlcNAc. In a few lines:
as §1

Assay [16] concerns the target Gal(b1-4)GlcNAc(b1-3)Gal(b1-4)GlcNAc(b1-3)Gal(b1-4)GlcNAc(b1-3)Gal(b1-4)GlcNAc(b1-3)Gal(b1-4)GlcNAc(b1-2)[Gal(b1-4)GlcNAc(b1-3)Gal(b1-4)GlcNAc(b1-3)Gal(b1-4)GlcNAc(b1-3)Gal(b1-4)GlcNAc(b1-3)Gal(b1-4)GlcNAc(b1-6)]Man(a1-6)[Gal(b1-4)GlcNAc(b1-3)Gal(b1-4)GlcNAc(b1-3)Gal(b1-4)GlcNAc(b1-3)Gal(b1-4)GlcNAc(b1-3)Gal(b1-4)GlcNAc(b1-2)Man(a1-3)]Man(b1-4)GlcNAc(b1-4)[Fuc(a1-6)]GlcNAc. The method in brief:
as §1

Assay [17] addresses Gal(b1-4)GlcNAc(b1-3)Gal(b1-4)GlcNAc(b1-3)Gal(b1-4)GlcNAc(b1-3)Gal(b1-4)GlcNAc(b1-3)Gal(b1-4)GlcNAc(b1-3)Gal(b1-4)GlcNAc(b1-2)Man(a1-3)[Gal(b1-4)GlcNAc(b1-3)Gal(b1-4)GlcNAc(b1-3)Gal(b1-4)GlcNAc(b1-3)Gal(b1-4)GlcNAc(b1-3)Gal(b1-4)GlcNAc(b1-3)Gal(b1-4)GlcNAc(b1-2)Man(a1-6)]Man(b1-4)GlcNAc(b1-4)GlcNAc. The method in brief:
as §1

Assay [18] deals with Gal(b1-4)GlcNAc(b1-3)Gal(b1-4)GlcNAc(b1-3)GalNAc. The method in brief: as §1
The target of assay [19] is Gal(b1-4)GlcNAc(b1-3)Gal(b1-4)GlcNAc(b1-3)[Gal(b1-4)GlcNAc(b1-3)Gal(b1-4)GlcNAc(b1-6)]GalNAc. In a few lines: as §1

B1: his-Lectin-24A (Drosophila melanogaster) (protein)
chain: MFRLSVLVLNLLLVSHEFSAGTAKIEIQPLPALCNGYCFPTLKPVMEYVAIHQDKWNTCTEILANEARKDQIQLNIQLDALKADVSNIKASQLSKDEKLDRMEREQFAMHESLETINRYLTVKLDRTKLQLEAIKNTMDYMKAQMDGYFSAINGVQCLQPGFEKIGDRYFYIEEDVELNWLDAQAKCRRMGGHLASIKTKQEFDAIVEKLDDSKSYFLGVNENTKTGDFVSAASGKSCLYHEWGPGEPHHNNDQERCVSILRKLMHVGNCTYEKRFICQYGI
Consider B1, for which the “glycan array binding signal (z-score)” value was -0.367 in assay [1]; 0.528 in [2]; -0.705 in assay [3]; -0.062 in assay [4]; 1.25 in assay [5]; -0.228 in assay [6]. Besides, the “glycan array binding signal (z-score)” value in assay [7] is -0.79; in assay [8], 0.203; in assay [9], 0.054; in assay [10] it was 2.08; in [11] it was 0.686; in assay [12], 3.44. The “glycan array binding signal (z-score)” value in [13] turned out to be 0.582; in [14], 4.07; in assay [15] it was 0.752; in assay [16], 2.31; in assay [17], 2.1; in assay [18], 0.73. Also, the “glycan array binding signal (z-score)” value in assay [19] was 0.144.
